Results are given in words; binding and its absence hold for the method and conditions named. Binding can be weak; no strength is given.

Protein sequences, listed by entry. Tags and fused reporters are not part of them. Lines headed by an entry give the natural chain unless they say otherwise; changes in a name come on top.
UniProt Q9M7Q7: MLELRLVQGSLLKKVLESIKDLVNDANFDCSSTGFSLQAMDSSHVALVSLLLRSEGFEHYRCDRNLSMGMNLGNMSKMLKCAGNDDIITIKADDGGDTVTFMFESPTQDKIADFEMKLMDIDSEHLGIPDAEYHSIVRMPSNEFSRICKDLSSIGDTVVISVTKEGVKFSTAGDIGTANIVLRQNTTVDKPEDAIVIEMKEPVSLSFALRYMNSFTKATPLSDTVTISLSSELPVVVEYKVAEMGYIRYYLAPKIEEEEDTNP
UniProt Q9ZW35: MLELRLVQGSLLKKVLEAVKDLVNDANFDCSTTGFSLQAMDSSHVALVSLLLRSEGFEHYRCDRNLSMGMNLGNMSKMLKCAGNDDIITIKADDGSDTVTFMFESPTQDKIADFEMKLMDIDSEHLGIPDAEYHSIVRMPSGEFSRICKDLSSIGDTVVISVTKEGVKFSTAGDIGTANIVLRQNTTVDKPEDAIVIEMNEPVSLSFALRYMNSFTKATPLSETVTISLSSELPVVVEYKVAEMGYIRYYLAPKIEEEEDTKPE
UniProt P42752: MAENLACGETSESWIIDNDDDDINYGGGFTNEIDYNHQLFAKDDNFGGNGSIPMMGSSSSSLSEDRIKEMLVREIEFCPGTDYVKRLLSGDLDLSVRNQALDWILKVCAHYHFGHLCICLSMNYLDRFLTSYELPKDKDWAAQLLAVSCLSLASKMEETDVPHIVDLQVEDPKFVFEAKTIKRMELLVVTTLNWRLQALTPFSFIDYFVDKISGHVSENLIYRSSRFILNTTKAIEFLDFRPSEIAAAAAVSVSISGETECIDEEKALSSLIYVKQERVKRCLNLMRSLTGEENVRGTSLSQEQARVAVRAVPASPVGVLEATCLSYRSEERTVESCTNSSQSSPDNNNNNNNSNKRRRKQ
UniProt Q2V3B2: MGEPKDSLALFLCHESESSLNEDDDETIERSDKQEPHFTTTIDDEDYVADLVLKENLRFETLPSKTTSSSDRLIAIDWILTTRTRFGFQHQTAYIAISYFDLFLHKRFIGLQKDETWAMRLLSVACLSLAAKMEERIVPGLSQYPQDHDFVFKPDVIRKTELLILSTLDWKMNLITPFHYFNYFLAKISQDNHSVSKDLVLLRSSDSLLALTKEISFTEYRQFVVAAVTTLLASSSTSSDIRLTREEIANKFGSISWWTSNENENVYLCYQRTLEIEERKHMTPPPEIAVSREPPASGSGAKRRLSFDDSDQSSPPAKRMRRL
UniProt Q8LGA1: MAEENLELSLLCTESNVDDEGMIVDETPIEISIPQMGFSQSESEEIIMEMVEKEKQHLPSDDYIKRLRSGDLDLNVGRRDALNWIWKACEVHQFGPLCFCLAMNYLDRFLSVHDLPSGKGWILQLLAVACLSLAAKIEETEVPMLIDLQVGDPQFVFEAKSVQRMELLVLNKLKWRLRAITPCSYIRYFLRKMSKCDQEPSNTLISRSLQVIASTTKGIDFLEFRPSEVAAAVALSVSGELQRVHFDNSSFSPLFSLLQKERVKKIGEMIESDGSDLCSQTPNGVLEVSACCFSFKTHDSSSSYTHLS

The source of these data is paper PMC4550699.

What all share (assay): two-hybrid; split-ubiquitin Y2H (MoBiTec transactivating starter kit), yeast NMY51, bait in pDHB1Gateway, prey in pPR3-NGateway; growth on SC-Leu-Trp-His with 10 mM 3-AT and X-gal filter assay; both orientations tested, the target of a row is the bait
In experiment [1] the target is PCNA1 (Proliferating Cell Nuclear Antigen 1), split-ubiquitin Y2H fusion (Arabidopsis thaliana) (UniProt Q9M7Q7).
Experiment [2] addresses PCNA2 (Proliferating Cell Nuclear Antigen 2), split-ubiquitin Y2H fusion (Arabidopsis thaliana) (UniProt Q9ZW35).
The target in experiment [3] is CycD2;1, split-ubiquitin Y2H fusion (Arabidopsis thaliana) (UniProt P42752).
Experiment [4] has as its target CycD5;1, split-ubiquitin Y2H fusion (Arabidopsis thaliana) (UniProt Q2V3B2).

Turning to “CycD4;1, split-ubiquitin Y2H fusion (from UniProt Q8LGA1)”, the binding result in experiment [1] and in experiment [2] was “binds” throughout.
Turning to “PCNA2 (Proliferating Cell Nuclear Antigen 2), split-ubiquitin Y2H fusion (from UniProt Q9ZW35 1-264)”, the binding entry in experiment [3] and in experiment [4] was “binds” throughout.
For “CycD5;1, split-ubiquitin Y2H fusion (from UniProt Q2V3B2)”, the binding result in experiment [1] is recorded as “no binding”.
For the substance “PCNA1 (Proliferating Cell Nuclear Antigen 1), split-ubiquitin Y2H fusion (from UniProt Q9M7Q7 1-263)”, in experiment [3], the binding result is “binds”.
